Values from PubChem BioAssay AID1259326 (Drosophila RNAi Screening Center, 2017)
In all, the deposit lists 573 reagents; shown is an unselected part. 39 of all reagents (6.8%) count as active. 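All actives have raised ATP, meaning more surviving cells; in these data active calls sit at averaged z-scores near 1.5 or above.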 Raw values are not corrected between plates. No sequences are given here. Not stated in the record: the amount of reagent.

- Aim: 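Autophagy genes whose loss alters cell survival in toxic zinc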
- System: Drosophila S2R+ cells
- Knock-down reagent: long dsRNA against Drosophila genes
- Time to read-out: about 5 days (4 days of RNAi, then 1 day of zinc)
- Conditions: zinc chloride added to 15 mM final for one day
- Measurement: 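Luminescent ATP signal marks surviving cells, read after RNAi for 4 days then 15 mM zinc chloride for 1 day; z-scores are replicate means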
- Reading the numbers: averaged z-score: higher = more ATP than other wells, i.e. more surviving cells, after zinc; ATP luminescence: higher = more ATP, i.e. more surviving cells
- Active means: 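Active if the averaged z-score exceeds 1.5 or falls under -1.5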

The opening 4 entries, to show the layout:
gene knocked down	DRSC id	averaged z-score	ATP luminescence, replicate 1	ATP luminescence, replicate 2	Outcome
Atg8b (Autophagy-related 8b)	DRSC14501	1.15	1.17e5	59757	inactive
Atg8b (Autophagy-related 8b)	DRSC24428	0.429	89344	81367	inactive
Atg8b (Autophagy-related 8b)	DRSC41156	0.0904	67955	85227	inactive
robo2 (roundabout 2)	DRSC00377	-0.395	64709	68949	inactive

The listing, from the start:
gene knocked down	DRSC id	averaged z-score	ATP luminescence, replicate 1	ATP luminescence, replicate 2	Outcome
Atg8b (Autophagy-related 8b)	DRSC14501	1.15	1.17e5	59757	inactive
Atg8b (Autophagy-related 8b)	DRSC24428	0.429	89344	81367	inactive
Atg8b (Autophagy-related 8b)	DRSC41156	0.0904	67955	85227	inactive
robo2 (roundabout 2)	DRSC00377	-0.395	64709	68949	inactive
robo2 (roundabout 2)	DRSC00378	-0.15	98848	79262	inactive
robo2 (roundabout 2)	DRSC00686	-0.0595	74524	72380	inactive
Atg7 (Autophagy-related 7)	DRSC06937	-0.368	1.04e5	68675	inactive
Atg7 (Autophagy-related 7)	DRSC38117	-0.186	76479	76074	inactive
Atg7 (Autophagy-related 7)	DRSC40920	-0.105	89190	61832	inactive
CCT7 (Chaperonin containing TCP1 subunit 7)	DRSC16410	-0.0428	89824	87937	inactive
CCT7 (Chaperonin containing TCP1 subunit 7)	DRSC36387	0.335	87920	72448	inactive
CCT7 (Chaperonin containing TCP1 subunit 7)	DRSC41250	0.656	80526	93765	inactive
Caf1-55 (Chromatin assembly factor 1, p55 subunit)	DRSC16596	0.735	1.13e5	88861	inactive
Caf1-55 (Chromatin assembly factor 1, p55 subunit)	DRSC37396	1.98	1.31e5	1.04e5	active
Caf1-55 (Chromatin assembly factor 1, p55 subunit)	DRSC40758	2.19	1.16e5	1.08e5	active
Pi3K92E (Phosphatidylinositol 3-kinase 92E)	DRSC16788	-0.0939	90339	78724	inactive
Pi3K92E (Phosphatidylinositol 3-kinase 92E)	DRSC36697	-0.636	85193	45988	inactive
polo	DRSC34464	2.11	1.09e5	1.20e5	active
polo	DRSC37001	0.675	95829	98963	inactive
polo	DRSC38944	0.634	1.04e5	71368	inactive
Pfas (Phosphoribosylformylglycinamidine synthase)	DRSC03480	-0.459	70253	90510	inactive
Pfas (Phosphoribosylformylglycinamidine synthase)	DRSC41147	-0.157	64165	75261	inactive
grp (grapes)	DRSC37018	-0.376	85639	80716	inactive
grp (grapes)	DRSC37316	0.985	85004	94799	inactive
grp (grapes)	DRSC40694	-0.131	73717	75947	inactive
sgg (shaggy)	DRSC23946	0.19	1.04e5	86651	inactive
sgg (shaggy)	DRSC31398	0.796	82225	87131	inactive
sgg (shaggy)	DRSC40670	0.265	87960	68384	inactive
Gfat2 (Glutamine:fructose-6-phosphate aminotransferase 2)	DRSC14598	-0.059	96103	74369	inactive
Gfat2 (Glutamine:fructose-6-phosphate aminotransferase 2)	DRSC26948	-0.294	77858	57528	inactive
Gfat2 (Glutamine:fructose-6-phosphate aminotransferase 2)	DRSC35756	-0.451	61558	72122	inactive
Atg4a (Autophagy-related 4a)	DRSC00656	-0.184	80630	62758	inactive
Atg4a (Autophagy-related 4a)	DRSC28580	-0.328	71722	64405	inactive
Atg4a (Autophagy-related 4a)	DRSC41153	-0.128	66857	75724	inactive
GAPcenA (GTPase activating protein and centrosome-associated)	DRSC10771	-0.557	70013	76342	inactive
GAPcenA (GTPase activating protein and centrosome-associated)	DRSC41200	-0.654	54733	72328	inactive
Plod (procollagen lysyl hydroxylase)	DRSC10601	-0.368	93444	63942	inactive
Plod (procollagen lysyl hydroxylase)	DRSC10602	-0.249	73477	67342	inactive
Plod (procollagen lysyl hydroxylase)	DRSC41195	0.096	68058	81916	inactive
galectin	DRSC00305	-0.355	80939	88263	inactive
galectin	DRSC41219	-0.678	41753	69958	inactive
CCT3 (Chaperonin containing TCP1 subunit 3)	DRSC16602	0.14	93736	85244	inactive
CCT3 (Chaperonin containing TCP1 subunit 3)	DRSC40938	0.415	99569	65828	inactive
CCT3 (Chaperonin containing TCP1 subunit 3)	DRSC41164	0.563	77937	96189	inactive
Atg5 (Autophagy-related 5)	DRSC18112	0.457	1.12e5	68988	inactive
Atg5 (Autophagy-related 5)	DRSC40922	0.251	83357	80167	inactive
Atg5 (Autophagy-related 5)	DRSC41154	-0.39	63150	69773	inactive
Cam (Calmodulin)	DRSC07354	-0.132	80698	76324	inactive
Cam (Calmodulin)	DRSC36150	-0.0123	71848	81162	inactive
Cam (Calmodulin)	DRSC41162	-0.329	67715	71205	inactive
Atg101 (Autophagy-related 101)	DRSC20020	-0.431	72125	1.08e5	inactive
Atg101 (Autophagy-related 101)	DRSC41199	0.0976	72345	86188	inactive
Rab6	DRSC03404	-0.887	81826	60220	inactive
Rab6	DRSC25636	-0.136	80252	68041	inactive
Rab6	DRSC41237	-0.288	63202	70424	inactive
aPKC (atypical protein kinase C)	DRSC07639	0.296	95348	84266	inactive
aPKC (atypical protein kinase C)	DRSC29936	-0.127	72260	85964	inactive
aPKC (atypical protein kinase C)	DRSC37031	-0.316	84217	73580	inactive
GCS2alpha (Glucosidase 2 alpha subunit)	DRSC21036	-0.431	90545	66754	inactive
GCS2alpha (Glucosidase 2 alpha subunit)	DRSC39381	-0.404	71265	75141	inactive
GCS2alpha (Glucosidase 2 alpha subunit)	DRSC39411	-0.14	63479	71848	inactive
dre4	DRSC08714	1.93	1.34e5	1.19e5	active
dre4	DRSC33007	4.44	1.59e5	1.52e5	active
dre4	DRSC33008	3.53	1.63e5	1.20e5	active
Glg1 (Golgi complex-localized glycoprotein 1)	DRSC11815	0.712	1.03e5	99775	inactive
Glg1 (Golgi complex-localized glycoprotein 1)	DRSC11816	0.256	78125	81531	inactive
Glg1 (Golgi complex-localized glycoprotein 1)	DRSC36385	0.106	86994	72380	inactive
Ggamma30A (G protein gamma subunit 30A)	DRSC02715	-0.169	93049	79172	inactive
Ggamma30A (G protein gamma subunit 30A)	DRSC03331	-0.18	82945	71025	inactive
Ggamma30A (G protein gamma subunit 30A)	DRSC41223	-0.398	66428	66771	inactive
alphaCOP (Coat Protein (coatomer) alpha)	DRSC08706	2.71	1.45e5	1.37e5	active
alphaCOP (Coat Protein (coatomer) alpha)	DRSC30831	2.03	1.09e5	1.11e5	active
alphaCOP (Coat Protein (coatomer) alpha)	DRSC30832	2.71	1.41e5	1.28e5	active
Pde6 (Phosphodiesterase 6)	DRSC16401	0.017	90356	73632	inactive
Pde6 (Phosphodiesterase 6)	DRSC16402	0.125	72345	84558	inactive
Pde6 (Phosphodiesterase 6)	DRSC16403	-0.101	67886	69906	inactive
Atg17 (Autophagy-related 17)	DRSC12221	-0.0831	80630	93747	inactive
Atg17 (Autophagy-related 17)	DRSC41170	-0.235	65142	71659	inactive
Lkb1 (Lkb1 kinase)	DRSC16481	-0.0831	85101	86393	inactive
Lkb1 (Lkb1 kinase)	DRSC31372	0.319	67132	77165	inactive
Lkb1 (Lkb1 kinase)	DRSC36926	0.27	86016	82740	inactive
gish (gilgamesh)	DRSC16154	0.14	92878	82757	inactive
gish (gilgamesh)	DRSC34550	0.302	78760	92706	inactive
gish (gilgamesh)	DRSC40750	-0.858	54442	64336	inactive
Cul2 (Cullin 2)	DRSC03710	0.349	1.03e5	82623	inactive
Cul2 (Cullin 2)	DRSC38374	0.228	88795	71162	inactive
Cul2 (Cullin 2)	DRSC38375	0.0505	68709	75277	inactive
